In US8067368 one finds binding data, which are given here for 3 molecules.

The chains behind the UniProt entries cited, without tags or fusion partners. Residues count along the entry.
UniProt P35968, residues 20-1356: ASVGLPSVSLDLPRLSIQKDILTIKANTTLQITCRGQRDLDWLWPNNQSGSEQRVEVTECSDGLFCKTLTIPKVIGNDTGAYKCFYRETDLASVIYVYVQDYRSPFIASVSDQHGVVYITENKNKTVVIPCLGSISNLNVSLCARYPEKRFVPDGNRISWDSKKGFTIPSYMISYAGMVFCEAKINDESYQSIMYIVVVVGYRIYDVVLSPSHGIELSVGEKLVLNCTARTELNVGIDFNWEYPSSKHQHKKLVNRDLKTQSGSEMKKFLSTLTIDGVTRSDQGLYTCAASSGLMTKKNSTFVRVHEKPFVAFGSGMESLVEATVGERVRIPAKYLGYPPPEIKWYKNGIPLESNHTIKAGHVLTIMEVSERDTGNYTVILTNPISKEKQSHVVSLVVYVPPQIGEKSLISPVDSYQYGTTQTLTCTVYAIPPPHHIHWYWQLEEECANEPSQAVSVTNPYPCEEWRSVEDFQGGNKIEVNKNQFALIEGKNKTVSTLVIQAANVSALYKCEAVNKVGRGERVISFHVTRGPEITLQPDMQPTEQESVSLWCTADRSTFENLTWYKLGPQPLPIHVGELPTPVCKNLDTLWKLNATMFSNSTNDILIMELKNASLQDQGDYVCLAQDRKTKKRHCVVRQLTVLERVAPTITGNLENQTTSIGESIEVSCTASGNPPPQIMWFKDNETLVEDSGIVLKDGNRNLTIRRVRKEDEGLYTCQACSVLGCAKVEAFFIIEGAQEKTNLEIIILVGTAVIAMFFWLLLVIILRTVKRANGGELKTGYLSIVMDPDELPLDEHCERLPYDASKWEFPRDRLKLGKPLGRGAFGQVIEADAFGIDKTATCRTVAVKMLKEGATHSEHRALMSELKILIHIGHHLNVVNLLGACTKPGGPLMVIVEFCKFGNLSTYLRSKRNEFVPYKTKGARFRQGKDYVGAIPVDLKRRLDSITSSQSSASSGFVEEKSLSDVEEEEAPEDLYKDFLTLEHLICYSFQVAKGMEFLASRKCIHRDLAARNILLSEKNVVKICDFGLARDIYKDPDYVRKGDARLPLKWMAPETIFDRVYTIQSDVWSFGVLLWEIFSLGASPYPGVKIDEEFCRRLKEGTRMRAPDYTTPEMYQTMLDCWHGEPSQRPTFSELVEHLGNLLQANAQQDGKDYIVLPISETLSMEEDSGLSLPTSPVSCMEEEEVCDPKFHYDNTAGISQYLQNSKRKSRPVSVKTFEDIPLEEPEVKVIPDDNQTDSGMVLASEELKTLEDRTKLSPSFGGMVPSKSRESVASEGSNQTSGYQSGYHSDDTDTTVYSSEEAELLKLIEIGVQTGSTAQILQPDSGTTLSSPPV

In experiment [1] the target is VEGFR-2 (Flk-1/KDR) receptor (human) (UniProt P35968). Nature of the experiment: HUVECs treated with 50 ng/ml for 2 min; Western blot of phospho-VEGFR-2. (In western blotting, separated proteins are transferred to a membrane and probed.)
The target is the same in experiment [2]. Nature of the experiment: summary statement; assay not described.

No constants are given. Whether binding was seen depends on the method and setting. Some entries that bind do so weakly or less than the wild type. Where a sequence is shown, tags or fusion partners need not be part of it.

B1: recombinant His-tagged VEGF205* (ligand, not shown: small tags and cut ends)
chain: APTTEGEQKSHEVIKFMDVYQRSYCRPIETLVDIFQEYPDEIEYIFKPSCVPLMRCAGCCNDEALECVPTSESNITMQIMRIKPHQSQHIGEMSFLQHSRCECRPKKDRTKPEKKSVRGKGKGQKRKRKKSRFKSWSVYVGAAAV
As to B1, the binding entry in experiment [1] and in experiment [2] was “binds” each time.

B2: recombinant VEGF144 (ligand)
chain: APTTEGEQKSHEVIKFMDVYQRSYCRPIETLVDIFQEYPDEIEYIFKPSCVPLMRCAGCCNDEALECVPTSESNITMQIMRIKPHQSQHIGEMSFLQHSRCECRPKKDRTKPEKKSVRGKGKGQKRKRKKSRFKSWSVCDKPRR
B2: in experiment [2], the binding entry is “binds”.

B3: recombinant His-tagged VEGF120 (ligand, not shown: small tags and cut ends)
chain: APTTEGEQKSHEVIKFMDVYQRSYCRPIETLVDIFQEYPDEIEYIFKPSCVPLMRCAGCCNDEALECVPTSESNITMQIMRIKPHQSQHIGEMSFLQHSRCECRPKKDRTKPEKCDKPRR
As to B3, the binding result in experiment [2] is “binds”.
